Among the data in patent US20220025056A1 are binding values, retold here.

Where a chain is given by its changes, count along the chain named. Results are given in words; binding and its absence hold for the method and conditions named. A result given as binding can be weak or reduced; the word gives no strength.

To fix the notation:
B1: 1E4C (antibody, human IgG1, V domains shown)
VH: QRELQQSGPELVKPGASVNISCKASGYSFTNHYINWVKQRPGQGLEWIGWIFPGNGDTNYNEKFKGKATLTADTSSSTAYMQLSSLTSEDSAVYFCARTWNYDARWGYWGQGTTVTVSS
VL: DVVMTQTPAFLAVSLGQRATISCRASESIDSYGISFMHWYQQKPGQPPKVLIYRTSNLESGIPARFSGSGSRTDFTLTINPVEADDVATYYCQQSNEDPFTFGSGTKLEIK
B2: 3A7A (antibody, human IgG1, V domains shown)
VH: QVQLKESGPELVKPGTSVKISCKASGYNFRNYYIQWVKQRPGQGLEWIGWIFPGNNETNYNEKFKGKATLSADTSSTTAYMQLSSLTSEDSAVYFCARSWNYDARWGYWGQGTTVTVSS
VL: B1 VL with F10S, S28I, S31N, M37I, V50L, T55A, F75S, E83G, I110L
B3: 1A9 (antibody, human IgG1, V domains shown)
VH: EVKLQQSGPDLVKPGASVKISCKASGYSFTNFYIHWVKQRPGQGLEWIGWIFPGNGETNYSEKFKGKATLTADTSSSTAYMQFNSLTYEDSAVYFCARTWNYDARWGYWGQGTTLTVSS
VL: B1 VL with F10S, E27D, S28G, H38R, K49T, V50L, T55A, N57T, D74N, S95T
B4: 27H5 (antibody, human IgG1, V domains shown)
VH: QVQLKESGPGLVAPSQSLSITCTVSGFSLTSYGVSWVRQPPGKGLEWLGVIWGDGNTNYHSALISRLSISKDNSKSQVFLKLNSLQTDDTATYYCARTNWDGWFAYWGQGTLVTVSA
VL: DIVMTQSHKFMSTSVGDRVSITCKASQDVGTAVAWYQQKPGQSPKLLIYWASTRHTGVPDRFTGSGSGTDFTLTISNVQSEDLADYFCQQYRSYPLGTFGGGTKLEIK
B5: 12D12 (antibody, human IgG1, V domains shown)
VH: QVQLQQPGAELVKPGASVRMSCKASGYTFTSYWVHWVKQRPGQGLEWIGVIDPSDSYTSYNQNFKGKATLTVDTSSKTAYIHLSSLTSEDSAVYFCARGERYDGDYFAMDYWGQGTSVTVSS
VL: DIVMTQSPASLSVSVGETVTITCRASENIYSNLAWYQQKQGKSPQLLVYAATNLADGVPSRFSGSRSGTQYSLKINSLQSEDFGTYYCQHFWNTPRTFGGGTKLEIK
B6: 3H5 (antibody, human IgG1, V domains shown)
VH: QVQLKESGPGLVAPSQSLSITCTVSGFSLTSYGVSWVRQPPGKGLEWLGVIWGDGSTNYHSALISRLSISKDNSKSQVFLKLNSLQTDDTATYYCAKPRWDDYAMDYWGQGTSVTVSS
VL: DIQMTQTTSSLSASLGDRVTISCRASQDISNYLNWYQQKPDGTVKLLIYYTSRLHSGVPSRFSGSGSGTDYSLTISNLEQEDIATYFCQQGNTLWTFGGGTKLEIK
B7: 48F12 (antibody, human IgG1, V domains shown)
VH: B6 VH with V50I, I64V, R99N, D102Y
VL: DIQMTQTTSSLSASLGDRVTISCRASQDISNYLNWYQQKVDGTVKLLISYTSRLHSGVPSRFSGSGSGTDYSLTISNLEQEDIATYFCQQGITLPLTFGAGTKLELK

This experiment concerns the target anchored ILT2 D1 domain protein (human). Nature of the experiment: flow cytometry, CHO cells with anchored ILT2 domain proteins. For orientation: A flow cytometer gives signals particle by particle.
Consider B1, for which the binding result was “binds”. As for B2, the entry is “binds”.

In the case of B3, the binding result was “binds”. As for B4, the binding entry was “binds”. Take B5: the binding result is on record as “binds”.

For B6, the binding result is given as “binds”. As to B7, the binding entry is “binds”.
